Article PMC10716017
These are yes or no findings as the source states them, for the method shown. In cells and extracts the contact can be indirect. Here binding means that the protein was enriched with, or labelled near, the bait; the list need not be complete. Values belong to the molecule of their own block, whether it stands above or below them.

Amino acid sequences for entries named in this document (tags omitted).
UniProt P17426: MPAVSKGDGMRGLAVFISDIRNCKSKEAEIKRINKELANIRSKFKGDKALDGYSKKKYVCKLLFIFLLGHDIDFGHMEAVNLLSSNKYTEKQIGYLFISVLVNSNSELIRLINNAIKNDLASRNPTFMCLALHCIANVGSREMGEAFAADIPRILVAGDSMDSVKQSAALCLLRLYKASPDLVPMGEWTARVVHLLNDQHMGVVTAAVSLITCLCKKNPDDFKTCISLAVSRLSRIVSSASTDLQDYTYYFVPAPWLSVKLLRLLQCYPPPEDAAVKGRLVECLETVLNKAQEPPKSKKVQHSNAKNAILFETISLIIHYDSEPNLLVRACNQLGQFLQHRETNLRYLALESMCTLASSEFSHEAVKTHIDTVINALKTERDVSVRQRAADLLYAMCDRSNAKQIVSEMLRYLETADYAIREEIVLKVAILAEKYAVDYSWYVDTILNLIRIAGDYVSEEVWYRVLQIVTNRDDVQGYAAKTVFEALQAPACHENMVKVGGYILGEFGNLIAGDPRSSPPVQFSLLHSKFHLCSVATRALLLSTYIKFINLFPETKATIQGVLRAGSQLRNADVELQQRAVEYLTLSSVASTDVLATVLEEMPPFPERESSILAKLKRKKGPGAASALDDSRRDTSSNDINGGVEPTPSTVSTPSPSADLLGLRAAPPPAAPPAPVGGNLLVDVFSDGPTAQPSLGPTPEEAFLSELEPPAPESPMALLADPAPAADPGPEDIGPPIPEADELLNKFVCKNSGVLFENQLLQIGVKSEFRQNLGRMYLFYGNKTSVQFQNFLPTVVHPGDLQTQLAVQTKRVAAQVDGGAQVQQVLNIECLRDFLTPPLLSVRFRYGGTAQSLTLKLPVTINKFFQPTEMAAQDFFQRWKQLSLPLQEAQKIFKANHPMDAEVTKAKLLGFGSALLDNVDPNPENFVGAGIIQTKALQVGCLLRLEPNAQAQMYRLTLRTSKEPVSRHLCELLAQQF
UniProt Q921G8: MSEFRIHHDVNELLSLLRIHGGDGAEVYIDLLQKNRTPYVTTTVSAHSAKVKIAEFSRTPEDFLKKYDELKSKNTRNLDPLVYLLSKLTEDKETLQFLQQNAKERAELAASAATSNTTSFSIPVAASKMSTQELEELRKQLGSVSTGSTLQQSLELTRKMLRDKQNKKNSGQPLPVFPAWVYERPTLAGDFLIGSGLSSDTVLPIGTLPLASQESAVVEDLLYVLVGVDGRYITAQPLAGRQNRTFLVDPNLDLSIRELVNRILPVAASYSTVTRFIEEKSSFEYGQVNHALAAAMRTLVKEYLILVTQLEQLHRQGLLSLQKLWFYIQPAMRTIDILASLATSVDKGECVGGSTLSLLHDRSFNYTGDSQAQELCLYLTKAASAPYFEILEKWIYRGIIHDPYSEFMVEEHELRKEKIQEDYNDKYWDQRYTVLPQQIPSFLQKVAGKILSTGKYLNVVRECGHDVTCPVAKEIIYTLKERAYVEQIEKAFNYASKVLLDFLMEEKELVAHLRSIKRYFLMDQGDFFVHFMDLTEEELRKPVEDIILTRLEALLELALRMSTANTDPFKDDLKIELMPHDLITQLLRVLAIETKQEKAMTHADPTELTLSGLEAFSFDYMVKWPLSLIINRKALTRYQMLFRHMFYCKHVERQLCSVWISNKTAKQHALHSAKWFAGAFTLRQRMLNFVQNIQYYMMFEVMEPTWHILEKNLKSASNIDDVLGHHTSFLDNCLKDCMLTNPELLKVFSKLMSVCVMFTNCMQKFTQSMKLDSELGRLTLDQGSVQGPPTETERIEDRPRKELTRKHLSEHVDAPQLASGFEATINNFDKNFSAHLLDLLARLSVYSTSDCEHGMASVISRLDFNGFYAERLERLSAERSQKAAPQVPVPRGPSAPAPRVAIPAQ
UniProt Q9D4F8: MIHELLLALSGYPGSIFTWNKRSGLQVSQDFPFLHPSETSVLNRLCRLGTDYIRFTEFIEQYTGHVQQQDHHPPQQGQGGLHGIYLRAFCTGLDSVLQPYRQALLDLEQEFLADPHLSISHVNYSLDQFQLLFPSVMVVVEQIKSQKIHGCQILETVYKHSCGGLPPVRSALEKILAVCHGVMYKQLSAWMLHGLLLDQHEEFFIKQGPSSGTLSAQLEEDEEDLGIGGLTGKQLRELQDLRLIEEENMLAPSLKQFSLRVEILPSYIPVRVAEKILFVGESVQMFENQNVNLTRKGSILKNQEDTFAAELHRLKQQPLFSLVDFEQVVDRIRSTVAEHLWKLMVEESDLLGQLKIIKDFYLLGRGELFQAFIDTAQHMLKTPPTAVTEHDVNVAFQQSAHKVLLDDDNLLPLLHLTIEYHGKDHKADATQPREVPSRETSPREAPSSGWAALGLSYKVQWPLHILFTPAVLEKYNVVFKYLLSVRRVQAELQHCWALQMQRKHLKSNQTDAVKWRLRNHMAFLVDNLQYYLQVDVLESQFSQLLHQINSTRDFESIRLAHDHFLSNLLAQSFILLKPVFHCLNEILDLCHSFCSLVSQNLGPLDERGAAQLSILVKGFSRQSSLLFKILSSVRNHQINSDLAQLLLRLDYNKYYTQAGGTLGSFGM
UniProt P58854: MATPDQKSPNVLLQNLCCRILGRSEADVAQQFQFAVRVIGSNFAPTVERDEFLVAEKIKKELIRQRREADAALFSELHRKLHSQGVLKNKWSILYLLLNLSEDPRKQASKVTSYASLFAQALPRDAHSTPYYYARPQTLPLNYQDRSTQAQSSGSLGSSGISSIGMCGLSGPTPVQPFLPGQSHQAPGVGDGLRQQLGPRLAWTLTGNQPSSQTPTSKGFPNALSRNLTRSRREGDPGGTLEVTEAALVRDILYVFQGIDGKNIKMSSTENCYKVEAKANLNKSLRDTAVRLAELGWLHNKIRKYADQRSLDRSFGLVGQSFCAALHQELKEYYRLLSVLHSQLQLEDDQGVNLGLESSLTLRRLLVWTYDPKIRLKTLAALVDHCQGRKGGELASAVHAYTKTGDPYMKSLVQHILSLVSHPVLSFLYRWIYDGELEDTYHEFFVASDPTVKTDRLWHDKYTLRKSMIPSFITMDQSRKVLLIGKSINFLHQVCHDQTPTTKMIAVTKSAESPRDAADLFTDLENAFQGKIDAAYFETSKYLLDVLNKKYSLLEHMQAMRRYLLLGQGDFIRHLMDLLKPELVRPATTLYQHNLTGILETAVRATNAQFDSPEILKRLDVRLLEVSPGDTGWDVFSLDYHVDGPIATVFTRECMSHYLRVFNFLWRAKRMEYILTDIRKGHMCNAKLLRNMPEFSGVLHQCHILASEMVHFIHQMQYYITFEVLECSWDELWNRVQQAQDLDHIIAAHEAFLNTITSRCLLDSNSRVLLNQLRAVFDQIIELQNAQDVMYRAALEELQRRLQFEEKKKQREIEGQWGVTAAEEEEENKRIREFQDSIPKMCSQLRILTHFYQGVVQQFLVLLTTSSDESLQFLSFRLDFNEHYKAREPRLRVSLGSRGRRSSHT

Target: AP-2α subunit of the AP-2 complex (mouse (endogenous in cortex)) (UniProt P17426)
Test: affinity purification with mass spectrometry; AP-2α antibody on Dynabeads Protein G as bait, IgG as control; embryonic mouse cortex (E12.5 in the results, E14-E16 in the methods) homogenised in Co-IP buffer (50 mM Tris-HCl pH 7.4, 100 mM NaCl, 1% NP-40, 2 mM MgCl2); label-free quantification, N = 5

- binding: binds
Molecule: GCP2 component of γ-TuRC (from UniProt Q921G8 1-905)

- binding: binds
B1: AP180 (protein, UniProt Q61548 1-901)
chain: MSGQTLTDRIAAAQYSVTGSAVARAVCKATTHEVMGPKKKHLDYLIQATNETNVNIPQMADTLFERATNSSWVVVFKALVTTHHLMVHGNERFIQYLASRNTLFNLSNFLDKSGSHGYDMSTFIRRYSRYLNEKAFSYRQMAFDFARVKKGADGVMRTMVPEKLLKSMPILQGQIDALLEFDVHPNELTNGVINAAFMLLFKDLIKLFACYNDGVINLLEKFFEMKKGQCKDALEIYKRFLTRMTRVSEFLKVAEQVGIDKGDIPDLTQAPSSLMETLEQHLNTLEGKKPGNNEGSGAPSPLSKSSPATTVTSPNSTPAKTIDTSPPVDIFATASAAAPVSSAKPSSDLLDLQPDFSGAAAGAAAPVVPPSGGATAWGDLLGEDSLAALSSVPCEAPISDPFAPEPSPPTTTTEPASASASTTTAVTAVTTEVDLFGDAFAASPGEAPAASEGATAPATPAPVAAALDACSGNDPFAPSEGSAEAAPELDLFAMKPPETSAPVVTPTASTAPPVPATAPSPAPTAVAATAATTTAAAAATTTATTSAAAATTAAAPPALDIFGDLFDSAPEVAAAPKPDAAPSIDLFGTDAFSSPPRGASPVPESSLTADLLSVDAFAAPSPASTASPAKAESSGVIDLFGDAFGSGASETQPAPQAVSSSSASADLLAGFGGSFMAPSTTPVTPAQNNLLQPSFEAAFGTTPSTSSSSSFDPSVFDGLGDLLMPTMAPSGQPAPVSMVPPSPAMAASKGLGSDLDSSLASLVGNLGISGTTSKKGDLQWNAGEKKLTGGANWQPKVTPATWSAGVPPQGTVPPTSSVPPGAGAPSVGQPGAGFGMPPSGTGMTMMSQQPVMFAQPMMRPPFGAAAVPGTQLSPSPTPATQSPKKPPAKDPLADLNIKDFL

- binding: binds
B3: GCP8 (also known as MZT2) (protein, UniProt Q9CQ25 1-159)
chain: MAAAAAAAGGAALAVSTGLETATLQKLALRRKKVLGAEEMELYELAQAAGAAIDPDVFKILVDLLNLNVAPLAVFQMLKSMCAGQRLASDPQDSVPISLSTSTSETRGRNRGGPILGNVTISAERGSRERPIQRMPRQPSATRLPKVGGSGKSNSRSSP

The next lines start with the molecule.

Molecule: GCP4 component of γ-TuRC (from UniProt Q9D4F8 1-667)
- binding: binds

Molecule: GCP3 component of γ-TuRC (from UniProt P58854 1-905)
- binding: binds

B2: HIP1 (protein, UniProt Q8VD75 1-1029)
chain: MDRMASSMKQVSNPLPKVLSRRGVGAGMEAAERESFERTQTVSVNKAINTQEVAVKEKHARTCILGTHHEKGAQTFWSVVNRLPLSSNAMLCWKFCHVFHKLLRDGHPNVLKDSLRYKNELSDMSRMWGHLSEGYGQLCSIYLKLLRTRMEYHTKNPRFPGNLQMSDRQLDEAGESDVNNFFQLTVEMFDYLECELNLFQTVFNSLDMSRSVSVTTAGQCRLAPLIQVILDCSHLYDYTVKLLFKLHSCLPADTLQGHRDRFMEQFTKLKDLFQRSSNLQYFKRLIQIPQLPENPPNFLRASALSEHISPVVVIPAEVSSPDSEPVLEKDDLMDMDASQQTLFDNKFDDVFGSSLSSDPFNFNNQNGVNKDEKDHLIERLYREISGLTGQLDNMKIESQRAMLQLKGRVSELEAELAEQQHLGRQAMDDCEFLRTELDELKRQREDTEKAQRSLTEIERKAQANEQRYSKLKEKYSELVQNHADLLRKNAEVTKQVSVARQAQVDLEREKKELADSFARTQEQQDVLENLKHELATSRQELQVLHSNLETSAQSEAKWLTQIAELEKEQGSLATVAAQREEELSALRDQLESTQIKLAGAQESMCQQVKDQRKTLLAGIRKAAEREIQEALSQLEEPTLISCAGSTDHLLSKVSSVSSCLEQLEKNGSQYLACPEDISELLHSITLLAHLTGDTIIQGSATSLRAPPEPADSLTEACRQYGRETLAYLSSLEEEGTMENADVTALRNCLSRVKTLGEELLPRGLDIKQEELGDLVDKEMAATSAAIEAATTRIEEILSKSRAGDTGVKLEVNERILGSCTSLMQAIKVLVVASKDLQKEIVESGRGTASPKEFYAKNSRWTEGLISASKAVGWGATIMVDAADLVVQGKGKFEELMVCSREIAASTAQLVAASKVKANKGSLNLTQLQQASRGVNQATAAVVASTISGKSQIEETDSMDFSSMTLTQIKRQEMDSQVRVLELENDLQKERQKLGELRKKHYELAGVAEGWEEGTEASPSTVQEAIPDKE
- binding: binds
